This note sets out measurements from article PMC12490858.

The target of the assay is T1, CCCTC-binding factor (CTCF) (mouse (endogenous in thymocytes)), Q61164.
T1 chain: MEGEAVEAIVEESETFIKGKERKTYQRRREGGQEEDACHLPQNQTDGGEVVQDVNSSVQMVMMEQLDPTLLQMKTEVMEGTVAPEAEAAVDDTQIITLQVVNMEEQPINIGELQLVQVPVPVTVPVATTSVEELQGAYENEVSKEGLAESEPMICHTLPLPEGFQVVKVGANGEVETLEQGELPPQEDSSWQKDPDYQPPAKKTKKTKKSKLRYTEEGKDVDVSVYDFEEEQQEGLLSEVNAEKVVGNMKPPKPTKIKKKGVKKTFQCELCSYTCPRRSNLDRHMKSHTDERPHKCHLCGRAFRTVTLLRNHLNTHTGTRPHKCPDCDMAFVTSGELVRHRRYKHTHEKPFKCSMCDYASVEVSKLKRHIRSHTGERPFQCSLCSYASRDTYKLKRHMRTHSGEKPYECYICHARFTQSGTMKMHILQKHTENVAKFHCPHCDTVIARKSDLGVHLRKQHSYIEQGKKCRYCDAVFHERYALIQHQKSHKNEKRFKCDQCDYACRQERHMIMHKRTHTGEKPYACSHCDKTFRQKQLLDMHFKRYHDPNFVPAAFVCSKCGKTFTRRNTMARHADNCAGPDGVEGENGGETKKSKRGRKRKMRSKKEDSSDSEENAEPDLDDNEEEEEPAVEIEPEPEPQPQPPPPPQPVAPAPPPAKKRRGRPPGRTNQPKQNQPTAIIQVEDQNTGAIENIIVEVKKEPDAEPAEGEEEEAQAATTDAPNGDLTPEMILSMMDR
Briefly: urea ChIP-Western; formaldehyde-crosslinked thymocyte chromatin purified by 8 M urea ultracentrifugation and sonicated (~10 ug chromatin-DNA); immunoprecipitated with the indicated antibody on Protein-A beads, washed 6 times, reverse-crosslinked at 65 C; released proteins detected by western blot. As to conditions: remark: other sources report otherwise. For orientation: Immunoblotting shows a protein as a band on a membrane.

Results are given in words; binding and its absence hold for the method and conditions named.

B1: SATB1, Q60611 1-764 (protein)
chain: MDHLNEATQGKEHSEMSNNVSDPKGPPAKIARLEQNGSPLGRGRLGSTGGKMQGVPLKHSGHLMKTNLRKGTMLPVFCVVEHYENAIEYDCKEEHAEFVLVRKDMLFNQLIEMALLSLGYSHSSAAQAKGLIQVGKWNPVPLSYVTDAPDATVADMLQDVYHVVTLKIQLHSCPKLEDLPPEQWSHTTVRNALKDLLKDMNQSSLAKECPLSQSMISSIVNSTYYANVSAAKCQEFGRWYKHFKKTKDMMVEMDSLSELSQQGANHVNFGQQPVPGNTAEQPPSPAQLSHGSQPSVRTPLPNLHPGLVSTPISPQLVNQQLVMAQLLNQQYAVNRLLAQQSLNQQYLNHPPPVSRSMNKPLEQQVSTNTEVSSEIYQWVRDELKRAGISQAVFARVAFNRTQGLLSEILRKEEDPKTASQSLLVNLRAMQNFLQLPEAERDRIYQDERERSLNAASAMGPAPLLSTPPSRPPQVKTATLATERNGKPENNTMNINASIYDEIQQEMKRAKVSQALFAKVAATKSQGWLCELLRWKEDPSPENRTLWENLSMIRRFLSLPQPERDAIYEQESNAVHHHGDRPPHIIHVPAEQIQQQQQQQQQQQQQQQPPPPPPQPQPQPQAGPRLPPRQPTVASSAESDEENRQKTRPRTKISVEALGILQSFIQDVGLYPDEEAIQTLSAQLDLPKYTIIKFFQNQRYYLKHHGKLKDNSGLEVDVAEYKDEELLKDLEESVQDKNANTLFSVKLEEELSVEGSTDVNADLKD
Consider B1, for which the binding result was “no binding”.
